Assay [1] has as its target HA-parkin N-terminal domain (aa 1 to 224) (UniProt O60260). The assay is described as follows: co-IP; whole-cell lysates of HeLa cells transfected with HA-parkin (WT, N, C); IP with anti-HA antibody, Western blot for endogenous AIF; densitometry of AIF relative to immunoprecipitated parkin.
The target of assay [2] is HA-parkin, wild type (full-length) (UniProt O60260). The assay is described as above.
The target of assay [3] is apoptosis-inducing factor (AIF), endogenous (human (endogenous in SH-SY5Y and HeLa)) (UniProt O95831). Put plainly: proximity ligation; in situ PLA (Duolink) in fixed SH-SY5Y cells, endogenous proteins, mouse anti-parkin and rabbit anti-AIF; untreated, CCCP (10 µM, 3 h) or STS (2 µM, 3 h).
The target is the same in assay [4]. The assay is described as follows: co-IP; whole-cell lysates of untreated SH-SY5Y cells with endogenous parkin levels; IP with rabbit anti-AIF antibody overnight at 4 °C, agarose beads, Western blot with anti-parkin; rabbit IgG and parkin knockdown cells as controls.
The target is the same in assay [5]. The assay is described as follows: co-IP; mitochondrial fractions of SH-SY5Y cells with moderately overexpressed parkin; untreated, CCCP or STS treated.

Sequences of proteins named here, by UniProt entry; tags and fusion partners are left off. A change or cut given only in a name is not applied to a line headed by its entry. Residues count along the entry.
UniProt O60260: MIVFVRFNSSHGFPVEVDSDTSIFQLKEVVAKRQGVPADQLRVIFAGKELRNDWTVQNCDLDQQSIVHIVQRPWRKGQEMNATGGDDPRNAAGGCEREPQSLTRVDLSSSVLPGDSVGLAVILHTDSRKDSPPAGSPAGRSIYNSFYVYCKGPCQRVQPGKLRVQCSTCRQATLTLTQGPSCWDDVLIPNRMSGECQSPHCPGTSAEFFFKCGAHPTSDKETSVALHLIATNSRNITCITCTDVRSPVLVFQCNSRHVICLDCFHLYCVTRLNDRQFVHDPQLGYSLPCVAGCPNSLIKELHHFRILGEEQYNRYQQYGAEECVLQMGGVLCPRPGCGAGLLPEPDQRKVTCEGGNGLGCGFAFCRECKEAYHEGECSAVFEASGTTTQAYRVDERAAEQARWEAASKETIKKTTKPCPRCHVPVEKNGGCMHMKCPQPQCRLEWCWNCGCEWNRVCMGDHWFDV
HA-parkin N-terminal domain (aa 1 to 224): residues 1-224 of O60260
UniProt O95831, residues 102-613: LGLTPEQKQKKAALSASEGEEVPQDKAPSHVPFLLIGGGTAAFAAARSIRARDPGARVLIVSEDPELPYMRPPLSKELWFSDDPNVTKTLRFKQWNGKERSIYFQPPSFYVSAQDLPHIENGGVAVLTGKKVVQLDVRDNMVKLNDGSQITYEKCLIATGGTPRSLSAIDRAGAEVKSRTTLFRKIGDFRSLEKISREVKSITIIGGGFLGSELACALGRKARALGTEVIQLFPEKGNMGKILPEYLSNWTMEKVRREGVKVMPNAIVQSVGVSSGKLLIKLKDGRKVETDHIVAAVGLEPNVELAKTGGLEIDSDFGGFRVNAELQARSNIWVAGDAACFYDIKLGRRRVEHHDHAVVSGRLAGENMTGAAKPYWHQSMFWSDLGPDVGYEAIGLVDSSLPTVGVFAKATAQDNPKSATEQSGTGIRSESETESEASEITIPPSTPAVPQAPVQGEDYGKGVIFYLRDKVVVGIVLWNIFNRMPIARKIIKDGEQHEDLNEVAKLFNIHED

These are yes or no findings as the source states them, for the method shown. Binding seen in cells or lysates may run through a third protein. Some results given as binding are weak or reduced against the parent protein; the word gives no strength.

“apoptosis-inducing factor (AIF), endogenous (from UniProt O95831 102-613)”: the binding result in assay [1] and in assay [2] was “binds” each time.

As to “parkin (endogenous, SH-SY5Y cells) (from UniProt O60260 1-465)”, the binding entry in assay [3] and in assay [4] was “binds” each time.

For the substance “parkin, stably (moderately) overexpressed in SH-SY5Y cells (from UniProt O60260 1-465)”, the binding entry in assay [5] is given as “binds”.

The record behind these values is PMC6386878.
